Tested on: CHO cells
Assay: Solution accelerating method, molecule delivery efficiency
Type: cell-based, Chinese Hamster
Conditions: mean ± STDEV

CN1CCN(c2ccc3[nH]c(-c4ccc5[nH]c(-c6ccc(O)cc6)nc5c4)nc3c2)CC1 [Hoechst 33258]
Delivery effciency (targeted cells/500 cells) (solution 0.1 mg/ml): 27.25 ± 7.22 targeted cells/500 cells
Delivery effciency (targeted cells/500 cells) (solution 0.5 mg/ml): 57.7 ± 25.56 targeted cells/500 cells
Delivery effciency (targeted cells/500 cells) (solution 1 mg/ml): 65.48 ± 18.81 targeted cells/500 cells
